Reference: PubChem BioAssay AID540256 (National Center for Advancing Translational Sciences (NCATS), 2011)
Hit rate of the full screen: of about 300,000 compounds, about 3,700 (1.2%) were called active. The shares of active, inactive and inconclusive entries below differ from those in the screen. The call rests on the fitted dose curve; tested in HEK293 cells. Potencies beside an inconclusive call are fits to weak or partial responses and may not hold up.

Test: qHTS for Inhibitors of binding or entry into cells for Lassa Virus; further: nearly all actives have a fitted effect of over 50% in size
Conditions: Lassa virus pseudotype entry inhibition, cell reporter; activity change, negative = inhibition: at 37.9 µM (top of the series) unless noted
On the % scale 0 is the no-effect control and ±100 the full control effect; potency means the concentration at half of the fitted maximal effect.

Compound	Potency	activity change, negative = inhibition
O=C(CN1C(=O)S/C(=C/c2cccs2)C1=O)N1CCOCC1	inconclusive: 35.5 µM [activator, partial curve, poor fit]	
CC(=O)c1ccc(Nc2cc(C)nc3ccc(C)cc23)cc1	inconclusive: 35.5 µM [inhibitor, single point]	
O=C(CSc1nnc(-c2ccccc2)n1Cc1ccco1)Nc1ccc(S(=O)(=O)N2CCCC2)cc1	inconclusive: 29.1 µM [inhibitor, single point]	
Cc1ccc(N=C2NC(=O)c3cc([N+](=O)[O-])ccc32)cc1		inactive: -2.52%
Cn1c(=O)c(NCCc2ccccc2)c2c3c(cccc31)C(=O)c1ccccc1-2		inactive: -0.867%
Cc1nn(CC(=O)Nc2ccccc2F)c(=O)c2c(C)n(-c3ccc(Cl)cc3)nc12		inactive: 3.48% [at 46.1 µM]
O=C(NCCSc1ccccc1)c1ccccc1	inconclusive: 0.92 µM [activator, full curve, poor fit]	
COc1cc(C)ccc1OCC(=O)OCC(=O)c1ccc[nH]1	inconclusive: 0.794 µM [inhibitor, single point]	
NC(=O)N/N=C1\CCS(=O)(=O)c2ccc(F)cc21	inconclusive: 1.12 µM [inhibitor, single point]	
c1ccc(-c2nnc(CSc3nncs3)o2)cc1		inactive: 17.6%
COc1ccc(OCCSc2nnc(-c3cccnc3)n2N)cc1		inactive: 3.46%
O=C1/C(=N\S(=O)(=O)c2cccs2)C([n+]2cccc(Cc3ccccc3)c2)=C([O-])c2ccccc21	inconclusive: 11.2 µM [inhibitor, partial curve, poor fit]	
COc1cccc(C(=O)CC(=O)C(=O)Nc2cc(OC)ccc2OC)c1	inconclusive: 7.94 µM [activator, full curve, poor fit]	
Cc1ccc(Cl)cc1NC(=O)Cn1c(=O)n(Cc2ccc(C(=O)NCc3ccc4c(c3)OCO4)cc2)c(=O)c2ccccc21	inconclusive: 5.01 µM [inhibitor, single point]	
COc1cccc(NC(=O)CN2CCSc3ccccc32)c1	inconclusive: 35.5 µM [inhibitor, single point]	
COc1cccc(N2CCN(C(=O)c3cnn(-c4ccc(C)cc4C)c3C3CCN(C(=O)OC(C)(C)C)CC3)CC2)c1	active: 1.12 µM	
CC(C)(C)S(=O)(=O)c1cnc2c(S(=O)(=O)c3ccccc3)cnn2c1N		inactive: 8.12% [at 46.1 µM]
O=C1c2cccc3cccc(c23)C(=O)N1CCN1CCN(CC(O)COCc2ccc(Cl)cc2)CC1 (stereo not given)	active: 18.4 µM	
O=C(O)c1cnn(-c2nc(-c3ccc(Cl)c(Cl)c3)cs2)c1C(F)(F)F		inactive: 8.59% [at 46.1 µM]
COc1ccc(Br)cc1CNc1ccc(O)cc1		inactive: -15.7%
CCN(CC)c1ccc(/C=N/NC(=O)Cc2nnc(NC(=O)Nc3ccccc3)s2)cc1	inconclusive: 5.8 µM [inhibitor, partial curve, poor fit]	
CC(=O)OCC(=O)[C@@]12OC3(CCCC3)O[C@@H]1C[C@H]1[C@@H]3CCC4=CC(=O)C=C[C@]4(C)[C@@]3(F)[C@@H](O)C[C@@]12C	inconclusive: 29.1 µM [inhibitor, single point]	

Entries from the list above that have a tert-butyl group, in the order listed:
Compound	Potency	activity change, negative = inhibition
COc1cccc(N2CCN(C(=O)c3cnn(-c4ccc(C)cc4C)c3C3CCN(C(=O)OC(C)(C)C)CC3)CC2)c1	active: 1.12 µM	
CC(C)(C)S(=O)(=O)c1cnc2c(S(=O)(=O)c3ccccc3)cnn2c1N		inactive: 8.12% [at 46.1 µM]

(continued)

Compound	Potency	activity change, negative = inhibition
COc1ccc(S(=O)(=O)Nc2ccc3c(c2)n(C)c(=O)n3C)cc1OC	inconclusive: 5.62 µM [inhibitor, single point]	
CC(=O)N1CCC(N2CCN(Cc3ccc(C)cc3)C(CCO)C2)CC1 (stereo not given)	inconclusive: 10 µM [activator, partial curve, poor fit]	
COc1cccc(-c2nc(-c3ccc4c(c3)NC(=O)CO4)cs2)c1		inactive: 13%
CCOc1ccc(C(NC(=O)c2ccco2)c2ccc(OC)c(OC)c2)cc1 (stereo not given)	inconclusive: 18.3 µM [inhibitor, partial curve, poor fit]	
CCOc1cc(N2CCOCC2)c(OCC)cc1NC(=O)COC(=O)c1ccccc1C	inconclusive: 35.5 µM [inhibitor, single point]	
O=C(NC(=O)N1CCN(C(c2ccccc2)c2ccccc2)CC1)c1ccccc1	inconclusive: 12.6 µM [inhibitor, partial curve, poor fit]	
C=C1C(=O)[C@@]23[C@H](O)C[C@@H]4C(C)(C)CC[C@H](O)[C@@]4(C)[C@@H]2CC[C@@H]1[C@H]3O	active: 10.3 µM	
COc1ccc2[nH]cc(CCNC(=O)Cc3c(F)cccc3Cl)c2c1		inactive: -15.4%
CCOC(=O)C1CCCN(C(=O)c2ccc(-n3ccc4ccccc43)s2)C1 (stereo not given)	inconclusive: 35.5 µM [inhibitor, single point]	
COc1cc(Nc2nc3ccc(Cl)cc3n3cnnc23)cc(OC)c1OC	inconclusive: 35.5 µM [inhibitor, single point]	
COc1ccc(OC)c(-c2c3cc(O)c(=O)cc-3oc3cc(O)c(O)cc23)c1	inconclusive: 0.355 µM [inhibitor, full curve, poor fit]	
COc1ccc(N(CC2CO2)S(=O)(=O)c2ccc(C)cc2)cc1 (stereo not given)	inconclusive: 10 µM [inhibitor, partial curve]	
COc1ccc(NC(=O)c2cccn(Cc3ccc(Cl)cc3)c2=O)c(OC)c1	inconclusive: 20 µM [inhibitor, partial curve, poor fit]	
Cn1nnc2c[n+](CC(=O)c3ccc4ccccc4c3)cc(Br)c21	inconclusive: 25.1 µM [inhibitor, single point]	
COc1ccc(-c2ccc3c(n2)CCCN3CC(O)CN2CCCc3nc(C)c(C)cc32)cc1 (stereo not given)	inconclusive: 0.0008 µM [activator]	
O=C(Nc1ccc(C(=O)N2CCOCC2)cc1)Nc1cccc(Cl)c1	inactive	
CC(=O)Nc1ccc(OS(=O)(=O)c2ccc(Cl)cc2)cc1		inactive: 0.359%
C/C(=N\Nc1ccccc1)c1c(O)[nH]c(=O)[nH]c1=O	inconclusive: 35.5 µM [inhibitor, partial curve, poor fit]	
CCc1ccc(-n2c(=O)c3sc4ccccc4c3n(CC(=O)N3CCCC3)c2=O)cc1	inconclusive: 2.82 µM [inhibitor, single point]	
O=c1c(Cl)c(Cl)cnn1-c1ccccc1	inconclusive: 11.6 µM [inhibitor, partial curve, poor fit]	
COc1ccccc1N1CCN(C(=O)c2oc3ccccc3c2C)CC1	inconclusive: 16.4 µM [inhibitor, partial curve, poor fit]	
S=c1[nH]nc(-c2ccccn2)n1/N=C/c1ccc(-c2ccccc2Cl)o1	inconclusive: 11.2 µM [inhibitor, partial curve, poor fit]	

A few values from above.
Potency with COc1ccccc1N1CCN(C(=O)c2oc3ccccc3c2C)CC1 is entered as inconclusive: 16.4 µM [inhibitor, partial curve, poor fit]
Potency with O=C(CSc1nnc(-c2ccccc2)n1Cc1ccco1)Nc1ccc(S(=O)(=O)N2CCCC2)cc1 is entered as inconclusive: 29.1 µM [inhibitor, single point]

Further compounds:

Compound	Potency	activity change, negative = inhibition
C[C@H](Cc1ccccc1)Nc1ncnc2c1ncn2[C@@H]1O[C@H](CO)[C@@H](O)[C@H]1O	inconclusive: 0.13 µM [activator, full curve, poor fit]	
CCOc1ccc(CCNC(=O)CSc2nc3ncc(Cl)cc3[nH]2)cc1OCC		inactive: 17.1%
Cc1c(Cl)cccc1NC(=O)Cn1cc(C(=O)c2cccs2)c2ccccc21	inconclusive: 10 µM [inhibitor, partial curve]	
O=C(COC(=O)c1cccs1)c1ccc2c(c1)OCCO2	inconclusive: 3.66 µM [inhibitor, full curve, poor fit]	
Cc1ccc2cccc(NC(=O)COc3ccccc3Cl)c2n1		inactive: 0.997% [at 46.1 µM]
COc1ccc(NC(=O)CCNC(=O)Cn2cnc3ccccc3c2=O)c(OC)c1	inconclusive: 0.891 µM [activator, full curve, poor fit]	
Cc1ccc(-c2nc(CS(=O)CC(=O)N3CCN(c4cccc(Cl)c4)CC3)c(C)o2)cc1 (stereo not given)		inactive: -1.52% [at 46.1 µM]
Cc1cccc(N2CCN(C(=O)C3CCC(=O)N(Cc4ccccc4F)C3)CC2)c1C (stereo not given)	inconclusive: 20 µM [inhibitor, partial curve, poor fit]	
COc1ccc(NC(=O)CN(C)CC(=O)Nc2cccc(F)c2)cc1Cl	inconclusive: 12.6 µM [inhibitor, partial curve, poor fit]	
O=C(OCc1ccccc1F)c1ccc2c(c1)OCCO2	inconclusive: 3.16 µM [activator, partial curve, poor fit]	
Cc1ccc2nc(N(CCCN(C)C)C(=O)c3ccc4c(c3)CCCC4)sc2c1	inconclusive: 17.8 µM [inhibitor, partial curve, poor fit]	
O=C(Nc1cccc(O)c1)c1noc2c1CCc1ccccc1-2	inconclusive: 9.2 µM [inhibitor, partial curve]	
COc1cccc(C(=O)c2cn(CC(=O)NCc3ccccc3Cl)c3nc(C)ccc3c2=O)c1	inconclusive: 11.2 µM [inhibitor, partial curve, poor fit]	
CCOC(=O)c1ccc(CSc2nnc(-c3ccncc3)n2N)cc1		inactive: 1.1%
CCc1ccc(NC(=O)c2cnn(-c3ccccc3)c2C)cc1	inconclusive: 10 µM [inhibitor, single point]	
CN1C(=O)[C@@H]2[C@@H]3C[C@@H]([C@H]4ON=C(c5ccc(Cl)cc5Cl)[C@@H]34)[C@@H]2C1=O		inactive: 1.89%
Cc1ccc(CNC(=O)C2CCN(S(=O)(=O)c3ccc(F)cc3)CC2)cc1		inactive: -2.58% [at 46.1 µM]
Cc1cc(C)c(S(=O)(=O)c2cccc(C(F)(F)F)c2)c(=O)[nH]1	inconclusive: 3.55 µM [inhibitor, partial curve, poor fit]	
O=C(COc1ccc2ccccc2c1)Nc1nccs1	inconclusive: 11.2 µM [inhibitor, single point]	
Cc1cc(C)c(S(=O)(=O)N2CCOC2CNC(=O)C(=O)NCCN(C)C)c(C)c1 (stereo not given)	inconclusive: 5.62 µM [activator, single point]	
O=C(O)CCN1C(=O)c2ccccc2C1=O		inactive: 17.8%
